Assay results reported in PubChem BioAssay AID504834 (National Center for Advancing Translational Sciences (NCATS), 2011).
“And” between values parts separate entries of the source, which are not always exact repeats. Equal entries are not always repeated. Hit rate of the full screen: of about 320,000 compounds, about 22,000 (6.9%) were called active. Inconclusive results, whose numbers are uncertain, are shown with a selection of clear calls. Calls come from the whole dose curve; as a rule, active = well fitted inhibition curve with a large enough effect; inconclusive = small, poorly fitted or top-dose-only effect, or another doubt; inactive = no such curve, though single readings can be large or run the other way. A potency beside an inconclusive call is a rough fit, not a confirmed value.

assay: Primary qHTS for delayed death inhibitors of the malarial parasite plastid, 96 hour incubation; details: P. falciparum luciferase reporter growth; series mostly up to 28.7 µM; activity change, negative = inhibition: at the top concentration
Outline: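 Cell-based qHTS: luciferase-tagged P. falciparum in erythrocytes (2% hematocrit, 0.05% parasitemia final) incubated with compounds for 96 hours, 37 C, 5% CO2; luciferase detection reagent then added and luminescence measured.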
% is set by controls: 0 for no effect and ±100 for the full control effect; potency is the fitted concentration of half-maximal effect.

SMILES | Potency | activity change, negative = inhibition
COc1cccc(NC(=O)CN(C)C(=O)c2c(-c3c(F)cccc3Cl)noc2C)c1 | inconclusive: 5.86 µM [inhibitor, partial curve, poor fit] | –
CC1=CC(=C(c2ccc(N)cc2)c2ccc(N)cc2)C=CC1=N | active: 1.07 µM | –
COc1ccc(Cc2nnc(N/N=C/c3ccc(O)cc3O)[nH]c2=O)cc1OC | inconclusive: 2.62 µM [inhibitor, full curve, poor fit] | –
COc1ccc(C(CC(=O)O)NC(=O)COc2ccccc2)cc1 (centres undefined) | inconclusive: 5.22 µM [inhibitor, partial curve, poor fit] | –
CCCn1c2ccccc2c2cc(C(=O)O)ccc21 | inconclusive: 18.5 µM [inhibitor, single point] | –
COC(=O)c1ccccc1NC(=O)CCn1c(=O)oc2ccccc21 | – | inactive: 88.8%
O=C(COC(=O)/C=C/c1ccco1)NCc1ccccc1Cl | – | inactive: 3.45%
O=c1[nH]c(CN2CCN(S(=O)(=O)c3cccs3)CC2)nc2c(Br)cc(Br)cc12 | – | inactive: 8.56%
O=C1CSc2ccc(S(=O)(=O)NCc3ccccc3)cc2N1 | – | inactive: -13.5%
COc1ccc(-c2c[n+]3c(n2-c2ccccc2)SCC3)cc1OC | inconclusive: 0.522 µM [inhibitor, full curve] | –
Cc1ccc(-c2noc(CN3CCN(C(c4ccccc4)c4ccccc4)CC3)n2)cc1 | inconclusive: 18.5 µM [inhibitor, single point] | –
Cc1ccc(-n2c(C)cc(/C([O-])=C(/C(=S)Nc3ccc(F)c(Cl)c3)[n+]3ccccc3)c2C)cc1 | inconclusive: 18.5 µM [inhibitor, single point] | –
Cc1cc2cc(C)c3nnc(SCC(=O)N4CCc5ccccc54)n3c2cc1C | – | inactive: 47.2%
Cc1cccc(C)c1NC(=O)c1ccc(N2CCCC2=O)cc1 | – | inactive: 30.2%
CC(NC(=O)CN1CCc2ccccc21)c1ccccc1 (centres undefined) | inconclusive: 18.5 µM [inhibitor, single point] | –
CCOC(=O)c1sc2nc(C)nc(NCc3ccc(Cl)cc3)c2c1C | inconclusive: 11.7 µM [inhibitor, partial curve, poor fit] | –
N#Cc1ccc(CSc2nnc(-c3c[nH]c4ccccc34)n2-c2ccccc2)cc1 | inconclusive: 13.1 µM [inhibitor, single point] | –

Arranged by molar mass (rising): some entries from above
SMILES | Potency | activity change, negative = inhibition
CC1=CC(=C(c2ccc(N)cc2)c2ccc(N)cc2)C=CC1=N | active: 1.07 µM | –
O=C1CSc2ccc(S(=O)(=O)NCc3ccccc3)cc2N1 | – | inactive: -13.5%
COc1ccc(-c2c[n+]3c(n2-c2ccccc2)SCC3)cc1OC | inconclusive: 0.522 µM [inhibitor, full curve] | –

Later entries.

SMILES | Potency | activity change, negative = inhibition
Cc1cc(Cl)ccc1-n1c(-c2cccnc2)n[nH]c1=S | inconclusive: 4.15 µM [inhibitor, single point] | –
Cc1cccc(C(=O)OCC(=O)NCCNC(=O)COC(=O)c2cccc(C)c2C)c1C | inconclusive: 5.22 µM [inhibitor, partial curve, poor fit] | –
C#CCOCCOCCOCCNc1nc(N2CCN(C(=O)[C@H]([C@@H](C)O)n3cc(CCCCN)nn3)CC2)nc(N2CCN(C(=O)[C@H](CCCCN)n3cc(CC(C)O)nn3)CC2)n1 (some centres undefined) | – | inactive: -9.79%
Cc1ccc(NC(=O)CSCC(=O)N(C)CC(=O)Nc2cccc3ccccc23)cc1 | inconclusive: 10.4 µM [inhibitor, single point] | –
O=C(NCCc1ccccc1)C1CCCN(S(=O)(=O)c2cccc3nsnc23)C1 (centres undefined) | active: 1.17 µM | –
COc1ccc(Cl)cc1N1CC(C(=O)Nc2nccs2)CC1=O (centres undefined) | inconclusive: 10.4 µM [inhibitor, single point] | –
Cc1ccc(N(C(=O)CNC(=O)c2ccco2)C(C(=O)NC2CCCC2)c2ccncc2)cc1C (centres undefined) | inconclusive: 10.4 µM [inhibitor, single point] | –
CN1CCN(C(=O)C23CC4CC(C2)CC(c2ccccc2)(C4)C3)CC1 | inconclusive: 0.0052 µM [inhibitor, full curve, poor fit] | –
COc1ccc(NC(=S)Nc2cccc(S(=O)(=O)N3CCCCC3)c2)cc1 | – | inactive: 9.64%
O=C(c1cccc(C(F)(F)F)c1)C1CCCN(C(=O)CCCn2cncn2)C1 (centres undefined) | inconclusive: 18.5 µM [inhibitor, single point] | –
CC(C)CN(C(=O)c1ccc(N2CCCC2=O)cc1)c1c(N)n(Cc2ccccc2)c(=O)[nH]c1=O | inconclusive: 11.7 µM [inhibitor, single point] | –
COc1ccc(C(CNC(=O)c2ccc(OCc3ccccc3)cc2)N2CCOCC2)cc1 (centres undefined) | inconclusive: 9.28 µM [inhibitor, partial curve, poor fit] | –
COCC1CCN(C(=O)CCc2nnc(C3(c4ccc(Cl)cc4)CCC3)o2)CC1 | – | inactive: 0%
CCCc1cc(=O)oc2cc(OCC(=O)NCCCN3CCOCC3)c(Cl)cc12 | inconclusive: 14.7 µM [inhibitor, single point] | –
Cc1cc(C(=O)N/N=C/c2cccc(OC(=O)c3ccco3)c2)n[nH]1 | inconclusive: 10.4 µM [inhibitor, single point] | –
CN(Cc1ccco1)c1ncnc2ccc(-c3ccc4c(c3)OCO4)cc12 | inconclusive: 10.4 µM [inhibitor, single point] and inconclusive: 18.5 µM [inhibitor, single point] | –
